Measured values published in PMC12802155.
No constants are given. Whether binding was seen depends on the method and setting. In cells and extracts the contact can be indirect. Some results given as binding are weak or reduced against the parent protein; the word gives no strength.

Chains of the proteins cited; added tags and fusions are not shown.
UniProt P08727: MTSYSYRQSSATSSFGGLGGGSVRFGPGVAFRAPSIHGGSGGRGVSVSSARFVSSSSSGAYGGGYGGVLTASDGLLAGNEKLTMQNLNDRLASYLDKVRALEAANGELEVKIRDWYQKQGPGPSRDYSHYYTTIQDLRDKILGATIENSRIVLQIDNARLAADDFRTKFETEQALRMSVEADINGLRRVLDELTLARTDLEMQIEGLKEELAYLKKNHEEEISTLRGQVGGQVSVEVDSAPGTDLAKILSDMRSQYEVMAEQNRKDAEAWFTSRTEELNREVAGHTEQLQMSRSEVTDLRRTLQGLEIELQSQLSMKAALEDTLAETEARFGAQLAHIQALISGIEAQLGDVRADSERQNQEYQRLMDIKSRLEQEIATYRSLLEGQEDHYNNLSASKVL
UniProt P35579: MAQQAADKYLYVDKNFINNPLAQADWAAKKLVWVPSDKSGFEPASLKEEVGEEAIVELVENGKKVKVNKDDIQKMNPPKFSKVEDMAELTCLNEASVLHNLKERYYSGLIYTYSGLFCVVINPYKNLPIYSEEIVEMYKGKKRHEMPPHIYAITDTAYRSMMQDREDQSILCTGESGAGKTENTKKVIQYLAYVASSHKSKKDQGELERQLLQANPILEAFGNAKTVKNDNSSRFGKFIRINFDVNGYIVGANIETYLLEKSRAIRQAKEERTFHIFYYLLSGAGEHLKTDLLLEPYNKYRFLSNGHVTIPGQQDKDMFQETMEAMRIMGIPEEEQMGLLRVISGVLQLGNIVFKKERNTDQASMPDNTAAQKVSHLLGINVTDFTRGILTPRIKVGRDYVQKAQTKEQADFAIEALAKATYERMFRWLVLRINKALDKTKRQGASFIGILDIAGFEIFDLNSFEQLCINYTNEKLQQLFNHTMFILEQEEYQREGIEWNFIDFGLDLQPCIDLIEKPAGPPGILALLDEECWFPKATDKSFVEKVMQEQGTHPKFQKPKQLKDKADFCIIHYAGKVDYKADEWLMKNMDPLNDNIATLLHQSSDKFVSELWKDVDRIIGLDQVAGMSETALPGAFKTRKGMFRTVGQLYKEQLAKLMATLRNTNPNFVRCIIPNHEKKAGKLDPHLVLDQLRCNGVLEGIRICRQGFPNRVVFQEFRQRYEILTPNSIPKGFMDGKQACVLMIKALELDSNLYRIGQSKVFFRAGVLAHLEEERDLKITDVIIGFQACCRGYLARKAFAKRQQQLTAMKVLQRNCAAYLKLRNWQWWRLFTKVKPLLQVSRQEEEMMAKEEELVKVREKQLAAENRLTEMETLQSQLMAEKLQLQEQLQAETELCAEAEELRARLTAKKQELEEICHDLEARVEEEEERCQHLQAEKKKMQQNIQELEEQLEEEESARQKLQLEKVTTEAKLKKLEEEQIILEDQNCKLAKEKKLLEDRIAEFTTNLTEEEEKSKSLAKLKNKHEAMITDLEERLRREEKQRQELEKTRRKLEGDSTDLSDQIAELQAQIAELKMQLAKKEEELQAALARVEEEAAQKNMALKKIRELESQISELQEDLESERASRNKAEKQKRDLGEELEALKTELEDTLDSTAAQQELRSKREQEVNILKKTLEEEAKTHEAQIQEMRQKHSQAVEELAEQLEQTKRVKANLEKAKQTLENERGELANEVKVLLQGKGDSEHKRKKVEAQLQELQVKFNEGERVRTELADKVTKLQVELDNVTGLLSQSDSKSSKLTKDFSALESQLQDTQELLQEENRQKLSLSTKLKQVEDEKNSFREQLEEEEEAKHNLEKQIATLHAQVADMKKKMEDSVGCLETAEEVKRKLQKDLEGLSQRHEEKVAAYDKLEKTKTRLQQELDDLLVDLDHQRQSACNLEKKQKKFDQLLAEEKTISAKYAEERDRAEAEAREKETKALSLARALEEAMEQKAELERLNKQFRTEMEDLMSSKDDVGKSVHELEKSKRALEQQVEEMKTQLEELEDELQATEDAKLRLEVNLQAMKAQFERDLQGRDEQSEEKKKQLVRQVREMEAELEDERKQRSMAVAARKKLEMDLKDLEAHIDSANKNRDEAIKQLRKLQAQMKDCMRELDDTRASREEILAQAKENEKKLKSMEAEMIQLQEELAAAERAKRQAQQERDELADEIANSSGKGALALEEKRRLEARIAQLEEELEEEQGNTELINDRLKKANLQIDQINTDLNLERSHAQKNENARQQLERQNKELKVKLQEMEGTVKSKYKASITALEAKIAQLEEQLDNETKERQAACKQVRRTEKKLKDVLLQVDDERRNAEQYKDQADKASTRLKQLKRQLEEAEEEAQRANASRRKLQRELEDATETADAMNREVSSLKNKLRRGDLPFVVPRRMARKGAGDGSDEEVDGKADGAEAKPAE

Target: keratin 19 (KRT19), endogenous (human (endogenous in A549)) (UniProt P08727)
Test: co-IP; endogenous proteins in A549 lysate (IP Lysis Buffer), specific antibodies or control IgG overnight at 4 °C, protein A + G agarose, immunoblot

myosin heavy chain 9 (MYH9), endogenous (from UniProt P35579 1-1960)
binding: binds
